Reference: paper PMC4551942
The exact form of at least one protein or probe is not confirmed. At least one result comes from cells or an extract, where the contact may be indirect. No signal at the amounts used counts as a negative. At least one verdict rests on a figure or table, not on a statement of the authors. For part of these data: Tags and fusion partners may be left off the protein sequences shown.

By UniProt entry, the sequences of proteins in these tests, tags left out. Where a name states a change or a piece, a line headed by the entry shows the natural chain unless it says otherwise.
UniProt Q8NCV1: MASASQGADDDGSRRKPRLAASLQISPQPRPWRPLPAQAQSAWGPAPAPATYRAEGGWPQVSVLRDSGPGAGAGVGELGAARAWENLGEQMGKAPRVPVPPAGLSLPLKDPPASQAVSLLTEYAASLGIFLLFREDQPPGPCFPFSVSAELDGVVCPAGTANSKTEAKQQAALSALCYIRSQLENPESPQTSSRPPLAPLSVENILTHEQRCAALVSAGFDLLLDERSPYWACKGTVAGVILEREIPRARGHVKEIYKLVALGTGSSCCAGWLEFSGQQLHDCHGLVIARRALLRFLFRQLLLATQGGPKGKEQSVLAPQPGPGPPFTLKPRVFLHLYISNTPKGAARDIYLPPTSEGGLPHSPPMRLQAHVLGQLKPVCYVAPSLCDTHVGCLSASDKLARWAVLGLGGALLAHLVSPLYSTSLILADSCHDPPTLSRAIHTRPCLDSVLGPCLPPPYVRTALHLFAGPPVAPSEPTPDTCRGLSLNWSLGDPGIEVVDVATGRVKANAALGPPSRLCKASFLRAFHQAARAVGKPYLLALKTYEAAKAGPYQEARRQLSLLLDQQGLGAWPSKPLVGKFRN

Legend:
Assay in all cases: SiMPull
Details in all cases: negligible binding; SiMPull/smPIFE on PEG surface, 1 nM labeled RNA, unbound RNA washed out; binding buffer; protein in a lysate after overexpression; protein details: EYFP at C-terminus; label: 3' amine-Cy3
ADAD2-EYFP (human) = ADAD2-EYFP (human) (UniProt Q8NCV1)
[1] = biological target: T1, Staufen1 (Stau1)-EYFP (human) (UniProt O95793)
T1 sequence (looked up, limits assumed): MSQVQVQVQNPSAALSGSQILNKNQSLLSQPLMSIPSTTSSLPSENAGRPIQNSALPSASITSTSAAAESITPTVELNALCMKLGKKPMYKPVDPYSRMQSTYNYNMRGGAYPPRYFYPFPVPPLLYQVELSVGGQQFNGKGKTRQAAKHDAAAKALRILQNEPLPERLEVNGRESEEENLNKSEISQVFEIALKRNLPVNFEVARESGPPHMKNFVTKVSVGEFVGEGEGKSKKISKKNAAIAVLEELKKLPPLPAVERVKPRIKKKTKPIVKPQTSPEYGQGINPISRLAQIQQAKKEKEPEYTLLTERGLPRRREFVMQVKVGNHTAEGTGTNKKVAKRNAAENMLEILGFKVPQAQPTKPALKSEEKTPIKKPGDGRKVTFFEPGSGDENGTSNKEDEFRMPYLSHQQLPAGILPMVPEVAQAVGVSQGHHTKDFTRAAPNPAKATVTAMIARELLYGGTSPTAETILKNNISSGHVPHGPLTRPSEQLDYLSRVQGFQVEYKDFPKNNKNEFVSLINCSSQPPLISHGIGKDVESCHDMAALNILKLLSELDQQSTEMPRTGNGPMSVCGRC

[2] = biological target: T2, TRBP (TRBP2)-EYFP (human) (UniProt Q15633)
T2 sequence: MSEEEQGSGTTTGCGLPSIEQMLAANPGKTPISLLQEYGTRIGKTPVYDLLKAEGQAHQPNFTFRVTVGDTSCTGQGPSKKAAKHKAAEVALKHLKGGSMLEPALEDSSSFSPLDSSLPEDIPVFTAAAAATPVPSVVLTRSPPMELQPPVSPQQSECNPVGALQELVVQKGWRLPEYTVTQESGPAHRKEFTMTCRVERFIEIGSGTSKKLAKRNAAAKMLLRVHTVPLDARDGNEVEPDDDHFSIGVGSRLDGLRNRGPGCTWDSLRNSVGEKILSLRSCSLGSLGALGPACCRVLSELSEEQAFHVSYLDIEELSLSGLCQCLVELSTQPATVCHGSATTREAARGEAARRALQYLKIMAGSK

Measured: binding result

UUUUUUUUUUUUUUUUUUUUUUUUUUUUUUUUUUUUUUUU [U40]
no binding: all assays above
